PubChem BioAssay AID1259331 – Drosophila RNAi Screening Center – 2017

- Purpose: 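Knock-downs that alter ATP level after a high zinc chloride dose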 (primary screen)
- System: Drosophila S2R+ cells
- Reagents: long dsRNA against Drosophila genes
- Timing: 5 days (4 days knock-down, then 1 day zinc)
- Conditions: zinc chloride at 15 mM final level for 1 day
- Measured: 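Total cellular ATP measured by luciferase luminescence as a viability proxy, turned into Z scores from three plate copies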
- Direction: mean Z score: higher = more ATP than other wells, better survival under zinc; ATP luminescence: higher = more ATP, more viable cells
- Hit rule: 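Hit when the absolute Z score is greater than 1.5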
- Calls: active = hit, ATP up or down; inactive = not a hit
In all, the deposit lists about 3,100 reagents; shown is a random part of them. Over the whole deposit, 126 (4.1%) are marked active. 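Calls are per reagent; zinc was so toxic that few knock-downs lowered ATP further, so most hits raise ATP.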 The raw values are shown without normalisation. Reagents against one gene are numbered here. Names joined by + are all predicted targets of the reagent. Not given: the amount of reagent.

| target | reagent no. | mean Z score | ATP luminescence, replicate 1 | ATP luminescence, replicate 2 | outcome |
| --- | --- | --- | --- | --- | --- |
| CG7149 | 1 | -0.167 | 49553 | 58454 | inactive |
| CG7149 | 2 | -0.186 | 50419 | 56962 | inactive |
| ppk21 (pickpocket 21) | 1 | 0.313 | 72105 | 70356 | inactive |
| ppk21 (pickpocket 21) | 2 | -0.532 | 43931 | 45628 | inactive |
| Ir31a (Ionotropic receptor 31a) | 1 | -0.0735 | 52504 | 55910 | inactive |
| plh (pasang lhamu) | 1 | -0.525 | 65708 | 50841 | inactive |
| lili (lilipod) | 1 | 0.299 | 50575 | 47411 | inactive |
| lili (lilipod) | 2 | 0.872 | 84695 | 64782 | inactive |
| CG15923 | 1 | 4.23 | 99311 | 91214 | active |
| Tsp29Fa (Tetraspanin 29Fa) | 1 | 0.69 | 55093 | 45114 | inactive |
| Tsp29Fa (Tetraspanin 29Fa) | 2 | 0.408 | 68109 | 67238 | inactive |
| OtopLc (Otopetrin-like c) | 1 | -0.601 | 56002 | 56156 | inactive |
| OtopLc (Otopetrin-like c) | 2 | -0.124 | 60649 | 58300 | inactive |
| CG31904 + CG13796 | 1 | -0.133 | 45371 | 45656 | inactive |
| Nmda1 (N-methyl-D-aspartate receptor-associated protein) | 1 | -0.0445 | 28879 | 31162 | inactive |
| Nmda1 (N-methyl-D-aspartate receptor-associated protein) | 2 | 0.303 | 58506 | 61198 | inactive |
| Or47a (Odorant receptor 47a) | 1 | -0.174 | 75415 | 72157 | inactive |
| Best1 (Bestrophin 1) | 1 | 0.48 | 70703 | 63479 | inactive |
| Best1 (Bestrophin 1) | 2 | 0.442 | 62621 | 68761 | inactive |
| CG11162 | 1 | 0.118 | 50703 | 50892 | inactive |
| CG11162 | 2 | 0.164 | 64782 | 64674 | inactive |
| Hmt-1 (Heavy metal tolerance factor 1) | 1 | -0.332 | 44291 | 41136 | inactive |
| Hmt-1 (Heavy metal tolerance factor 1) | 2 | -0.113 | 60569 | 57659 | inactive |
| MFS3 (Major Facilitator Superfamily Transporter 3) | 1 | 0.608 | 51098 | 49829 | inactive |
| MFS3 (Major Facilitator Superfamily Transporter 3) | 2 | 0.511 | 71846 | 66634 | inactive |
| Sec61alpha (Sec61 alpha subunit) | 1 | 0.358 | 60392 | 62210 | inactive |
| Or83a + CG1172 | 1 | -0.183 | 66634 | 58711 | inactive |
| Or83a + CG1172 | 2 | -0.0933 | 54579 | 64542 | inactive |
| CG14767 | 1 | -0.262 | 27970 | 27525 | inactive |
| CG14767 | 2 | 0.284 | 66977 | 64553 | inactive |
| CG13869 + CG11099 | 1 | -0.322 | 53516 | 51098 | inactive |
| CG5250 | 1 | -0.271 | 35719 | 54013 | inactive |
| CG5250 | 2 | -0.0415 | 53738 | 57648 | inactive |

Next part; the last 7 above are carried over.
| target | reagent no. | mean Z score | ATP luminescence, replicate 1 | ATP luminescence, replicate 2 | outcome |
| --- | --- | --- | --- | --- | --- |
| Or83a + CG1172 | 1 | -0.183 | 66634 | 58711 | inactive |
| Or83a + CG1172 | 2 | -0.0933 | 54579 | 64542 | inactive |
| CG14767 | 1 | -0.262 | 27970 | 27525 | inactive |
| CG14767 | 2 | 0.284 | 66977 | 64553 | inactive |
| CG13869 + CG11099 | 1 | -0.322 | 53516 | 51098 | inactive |
| CG5250 | 1 | -0.271 | 35719 | 54013 | inactive |
| CG5250 | 2 | -0.0415 | 53738 | 57648 | inactive |
| Gr22b (Gustatory receptor 22b) | 1 | -0.283 | 39113 | 40980 | inactive |
| TrpA1 (Transient receptor potential cation channel A1) | 1 | 1.05 | 94593 | 83168 | inactive |
| teq (Tequila) | 1 | -0.29 | 75879 | 55779 | inactive |
| teq (Tequila) | 2 | -0.266 | 40948 | 45310 | inactive |
| CG10465 | 1 | -0.277 | 45851 | 37463 | inactive |
| CG10465 | 2 | -0.198 | 51715 | 64490 | inactive |
| Prip | 1 | -0.536 | 29873 | 25828 | inactive |
| Prip | 2 | 0.625 | 71453 | 64319 | inactive |
| CG4645 | 1 | 1.85 | 71093 | 61938 | active |
| CG4645 | 2 | 0.565 | 60083 | 64456 | inactive |
| kek1 (kekkon 1) | 1 | 0.00658 | 53687 | 37125 | inactive |
| kek1 (kekkon 1) | 2 | 0.154 | 49605 | 50333 | inactive |
| kek1 (kekkon 1) | 3 | -0.283 | 45851 | 43314 | inactive |
| ppk30 (pickpocket 30) | 1 | 0.746 | 74081 | 82865 | inactive |
| ppk30 (pickpocket 30) | 2 | -0.957 | 56876 | 37656 | inactive |
| Inx6 (Innexin 6) | 1 | -0.357 | 35496 | 45622 | inactive |
| Inx6 (Innexin 6) | 2 | -0.189 | 52879 | 53430 | inactive |
| ZnT77C (Zinc transporter 77C) | 1 | -0.268 | 69430 | 59191 | inactive |
| ZnT77C (Zinc transporter 77C) | 2 | 0.371 | 45440 | 50412 | inactive |
| cni (cornichon) | 1 | -0.144 | 43691 | 34401 | inactive |
| RFeSP (Rieske iron-sulfur protein) | 1 | -0.235 | 41753 | 43777 | inactive |
| RFeSP (Rieske iron-sulfur protein) | 2 | -0.673 | 49172 | 43554 | inactive |
| CG5823 | 1 | -0.123 | 41496 | 47631 | inactive |
| CG5823 | 2 | 0.185 | 65828 | 63736 | inactive |
| yin | 1 | -0.121 | 47720 | 46451 | inactive |
| yin | 2 | 0.358 | 60812 | 61764 | inactive |
| CG18788 | 1 | -0.454 | 39662 | 30610 | inactive |
| Cals (Calsyntenin) | 1 | -0.392 | 44514 | 37999 | inactive |
| Cals (Calsyntenin) | 2 | 0.0862 | 49212 | 48012 | inactive |
| amx (almondex) | 1 | -0.483 | 50258 | 48594 | inactive |
| amx (almondex) | 2 | 0.417 | 59166 | 65228 | inactive |
| CG17075 | 1 | 0.0798 | 57157 | 57545 | inactive |
| CG17075 | 2 | -0.301 | 57923 | 48200 | inactive |
| Coq4 + frc | 1 | 0.456 | 89893 | 65640 | inactive |
| GluRIB (Glutamate receptor IB) | 1 | 2.14 | 1.15e5 | 96086 | active |
| GluRIB (Glutamate receptor IB) | 2 | -0.0516 | 57151 | 55667 | inactive |
